According to US20230331829A1 (KOREA ADVANCED INSTITUTE OF SCIENCE AND TECHNOLOGY, published 2023):
Results are given in words; binding and its absence hold for the method and conditions named. Binding calls can cover weak binding; strength is not graded here. Sequences can lack the tags named with a protein.

Target: C-terminal recombinant protein including the homeodomain of the PROX1 protein
Test: chicken antibody phage display screening

B1: anti-PROX1-single chain Fv-His (clone #1A11) (scFv, V domains shown)
VH: AVTLDESGGGLQTPGGGLSLVCKASGFTFSSYAMNWVRQAPGKGLEWVAAIDDDGSYTGYGSAVKGRATISRDNGQSTVRLQLNNLRAEDTAIYYCAKAAGSGYCYRGANSSYTCGTYNAGDIDAWGHGTEVIVSS
VL: LTQPSSVSANLGETVEITCSGGSGSYGWYQQKSPGSAPVTLIYDNANRPSNIPSRFSGSKSGSTGTLTITGVRAEDEAVYYCGNVDSSTYVGMFGAGTTLTVL
notes: One polypeptide (scFv from a chicken antibody phage display library) with a hexa-histidine tag; used as phage periplasmic supernatant; also called anti-PROX1-scFv-His; scFv-His
For B1, the binding was “binds”.
